Results are given in words; binding and its absence hold for the method and conditions named. Binding seen in cells or lysates may run through a third protein. Some results given as binding are weak or reduced against the parent protein; the word gives no strength. Tags and fused reporters may be left off the sequences shown.
Key:
GFP-MICAL1 (human) = molecular target: T1, GFP-MICAL1 (human) (UniProt Q8TDZ2); assay: co-IP; transfected 293T, IP with α-GFP and Protein G Sepharose; 20 mM Hepes pH 7.4, 150 mM NaCl, 2 mM EDTA, 1% IGEPAL CA-630; Western blot
T1 sequence: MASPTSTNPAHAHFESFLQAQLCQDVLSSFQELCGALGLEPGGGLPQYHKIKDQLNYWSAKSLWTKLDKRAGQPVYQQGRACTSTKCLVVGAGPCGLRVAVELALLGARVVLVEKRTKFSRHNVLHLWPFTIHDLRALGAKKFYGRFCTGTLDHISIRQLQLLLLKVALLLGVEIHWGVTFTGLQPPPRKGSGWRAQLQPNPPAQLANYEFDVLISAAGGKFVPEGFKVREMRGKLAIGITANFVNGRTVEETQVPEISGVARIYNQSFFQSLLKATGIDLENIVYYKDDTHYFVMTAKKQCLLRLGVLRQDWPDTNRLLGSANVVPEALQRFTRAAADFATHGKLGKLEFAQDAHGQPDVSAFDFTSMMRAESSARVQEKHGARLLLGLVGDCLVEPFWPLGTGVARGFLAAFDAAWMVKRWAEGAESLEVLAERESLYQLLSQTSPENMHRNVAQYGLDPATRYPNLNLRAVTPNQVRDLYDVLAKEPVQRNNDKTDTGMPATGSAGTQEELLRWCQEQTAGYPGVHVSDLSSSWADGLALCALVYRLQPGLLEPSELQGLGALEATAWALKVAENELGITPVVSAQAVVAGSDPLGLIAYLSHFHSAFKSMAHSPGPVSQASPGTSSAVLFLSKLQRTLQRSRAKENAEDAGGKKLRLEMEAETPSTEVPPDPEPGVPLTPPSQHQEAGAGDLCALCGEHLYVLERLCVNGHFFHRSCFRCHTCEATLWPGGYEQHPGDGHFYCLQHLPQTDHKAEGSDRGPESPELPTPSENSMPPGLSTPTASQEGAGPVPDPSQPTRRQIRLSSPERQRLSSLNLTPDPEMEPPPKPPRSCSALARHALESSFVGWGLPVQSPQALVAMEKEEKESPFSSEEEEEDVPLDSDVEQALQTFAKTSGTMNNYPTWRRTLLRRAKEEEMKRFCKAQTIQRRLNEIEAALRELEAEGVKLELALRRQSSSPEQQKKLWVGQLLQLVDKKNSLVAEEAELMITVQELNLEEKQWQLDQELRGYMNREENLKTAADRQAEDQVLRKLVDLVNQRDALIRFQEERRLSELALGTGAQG

By UniProt entry, the sequences of proteins in these tests, tags left out.
UniProt Q8N3F8: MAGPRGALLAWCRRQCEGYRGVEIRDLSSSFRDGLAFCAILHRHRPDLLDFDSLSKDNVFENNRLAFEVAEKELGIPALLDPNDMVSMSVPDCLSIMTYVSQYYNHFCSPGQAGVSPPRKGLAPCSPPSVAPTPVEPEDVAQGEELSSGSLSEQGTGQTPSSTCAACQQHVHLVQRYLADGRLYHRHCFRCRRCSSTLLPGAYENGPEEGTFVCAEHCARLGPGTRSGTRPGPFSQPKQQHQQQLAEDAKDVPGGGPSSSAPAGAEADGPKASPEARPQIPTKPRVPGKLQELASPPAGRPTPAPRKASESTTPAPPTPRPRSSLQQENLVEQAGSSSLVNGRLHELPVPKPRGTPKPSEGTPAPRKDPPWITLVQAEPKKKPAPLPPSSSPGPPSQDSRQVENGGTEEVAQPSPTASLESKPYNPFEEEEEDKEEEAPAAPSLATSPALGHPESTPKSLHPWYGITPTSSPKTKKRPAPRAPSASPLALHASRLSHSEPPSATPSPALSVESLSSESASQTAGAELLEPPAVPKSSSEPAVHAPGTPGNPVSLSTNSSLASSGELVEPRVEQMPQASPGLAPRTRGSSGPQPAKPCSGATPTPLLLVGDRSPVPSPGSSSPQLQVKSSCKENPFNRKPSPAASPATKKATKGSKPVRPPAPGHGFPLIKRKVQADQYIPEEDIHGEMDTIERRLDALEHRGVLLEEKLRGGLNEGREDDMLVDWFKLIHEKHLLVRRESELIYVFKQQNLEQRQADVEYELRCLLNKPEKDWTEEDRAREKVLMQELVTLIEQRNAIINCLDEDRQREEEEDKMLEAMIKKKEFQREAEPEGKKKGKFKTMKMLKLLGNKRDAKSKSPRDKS
UniProt Q8IY33: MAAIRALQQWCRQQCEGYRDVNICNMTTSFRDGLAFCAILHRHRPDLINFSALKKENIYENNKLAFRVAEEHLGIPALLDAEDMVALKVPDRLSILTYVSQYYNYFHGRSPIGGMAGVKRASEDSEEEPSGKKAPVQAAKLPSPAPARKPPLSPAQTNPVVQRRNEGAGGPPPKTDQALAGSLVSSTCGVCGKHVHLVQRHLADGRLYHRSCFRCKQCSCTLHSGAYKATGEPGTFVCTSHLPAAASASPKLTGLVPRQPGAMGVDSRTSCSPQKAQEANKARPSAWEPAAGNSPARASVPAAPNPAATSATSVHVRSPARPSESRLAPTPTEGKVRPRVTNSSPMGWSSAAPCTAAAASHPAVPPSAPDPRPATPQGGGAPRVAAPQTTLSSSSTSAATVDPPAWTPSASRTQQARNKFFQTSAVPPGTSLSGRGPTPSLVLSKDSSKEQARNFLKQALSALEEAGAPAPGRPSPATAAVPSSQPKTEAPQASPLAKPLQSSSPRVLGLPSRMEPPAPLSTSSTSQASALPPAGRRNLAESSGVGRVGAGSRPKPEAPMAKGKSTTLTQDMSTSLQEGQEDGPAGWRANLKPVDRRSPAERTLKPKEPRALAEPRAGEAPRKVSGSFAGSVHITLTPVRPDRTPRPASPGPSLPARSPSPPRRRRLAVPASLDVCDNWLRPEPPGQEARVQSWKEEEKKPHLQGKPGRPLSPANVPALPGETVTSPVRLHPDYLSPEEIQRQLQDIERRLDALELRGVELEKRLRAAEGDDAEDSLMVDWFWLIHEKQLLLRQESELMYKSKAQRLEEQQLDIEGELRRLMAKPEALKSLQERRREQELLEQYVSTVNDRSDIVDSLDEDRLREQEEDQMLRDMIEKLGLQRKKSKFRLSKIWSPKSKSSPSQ

GFP–MICAL-L1 (human) = GFP–MICAL-L1 (human) (UniProt Q8N3F8); assay: as above
GFP–MICAL-L2 (human) = GFP–MICAL-L2 (human) (UniProt Q8IY33); assay: as above
myc-MICAL1 PPAPP (human) = molecular target: T2, myc-MICAL1 PPAPP (human) (UniProt Q8TDZ2); assay: co-IP; transfected 293T, IP with α-myc–coated magnetic beads; 20 mM Hepes pH 7.4, 150 mM NaCl, 2 mM EDTA, 1% IGEPAL CA-630; Western blot
T2 sequence: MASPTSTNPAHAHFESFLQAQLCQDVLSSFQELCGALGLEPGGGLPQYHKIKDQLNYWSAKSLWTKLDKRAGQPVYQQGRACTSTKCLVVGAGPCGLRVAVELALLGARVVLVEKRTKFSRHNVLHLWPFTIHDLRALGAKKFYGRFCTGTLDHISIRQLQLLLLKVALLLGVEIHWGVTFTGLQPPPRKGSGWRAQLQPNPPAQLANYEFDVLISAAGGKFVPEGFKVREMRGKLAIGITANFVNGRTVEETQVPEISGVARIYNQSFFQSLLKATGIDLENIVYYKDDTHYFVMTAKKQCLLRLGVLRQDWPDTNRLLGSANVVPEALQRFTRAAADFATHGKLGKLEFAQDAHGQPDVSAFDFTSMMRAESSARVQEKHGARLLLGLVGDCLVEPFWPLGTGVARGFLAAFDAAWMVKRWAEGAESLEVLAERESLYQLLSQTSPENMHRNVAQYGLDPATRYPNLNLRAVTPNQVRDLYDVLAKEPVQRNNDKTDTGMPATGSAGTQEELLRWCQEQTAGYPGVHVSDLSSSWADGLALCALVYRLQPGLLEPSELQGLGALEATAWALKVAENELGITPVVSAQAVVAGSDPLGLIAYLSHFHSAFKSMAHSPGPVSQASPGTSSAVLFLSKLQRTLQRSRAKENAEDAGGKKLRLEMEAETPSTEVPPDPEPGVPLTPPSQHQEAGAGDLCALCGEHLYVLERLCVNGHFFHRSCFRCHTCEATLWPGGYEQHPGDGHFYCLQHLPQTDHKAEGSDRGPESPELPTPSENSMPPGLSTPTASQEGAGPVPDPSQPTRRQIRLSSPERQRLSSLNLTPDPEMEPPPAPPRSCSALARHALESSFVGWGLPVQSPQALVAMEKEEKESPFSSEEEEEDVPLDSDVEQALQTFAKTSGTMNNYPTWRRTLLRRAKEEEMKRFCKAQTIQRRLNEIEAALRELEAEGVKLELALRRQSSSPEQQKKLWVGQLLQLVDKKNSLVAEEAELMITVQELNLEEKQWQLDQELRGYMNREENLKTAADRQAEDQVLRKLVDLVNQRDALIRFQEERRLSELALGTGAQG

myc-MICAL1^Pro (human) = molecular target: T3, myc-MICAL1^Pro (human) (UniProt Q8TDZ2); assay: as above
T3 sequence: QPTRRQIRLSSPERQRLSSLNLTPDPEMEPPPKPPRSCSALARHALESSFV

myc-MICAL1^tail (human) = molecular target: T4, myc-MICAL1^tail (human) (UniProt Q8TDZ2); assay: as above
T4 sequence: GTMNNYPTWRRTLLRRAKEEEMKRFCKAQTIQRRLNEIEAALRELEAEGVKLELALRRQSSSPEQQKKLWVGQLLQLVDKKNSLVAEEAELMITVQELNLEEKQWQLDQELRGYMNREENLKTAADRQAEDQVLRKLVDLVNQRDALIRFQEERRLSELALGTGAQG

Binder	binding (GFP-MICAL1 (human))	binding (GFP–MICAL-L1 (human))	binding (GFP–MICAL-L2 (human))	binding (myc-MICAL1 PPAPP (human))	binding (myc-MICAL1^Pro (human))	binding (myc-MICAL1^tail (human))
GRAF1b-myc (protein, UniProt Q9UNA1-2 1-759) MGLPALEFSDCCLDSPHFRETLKSHEAELDKTNKFIKELIKDGKSLISALKNLSSAKRKFADSLNEFKFQCIGDAETDDEMCIARSLQEFATVLRNLEDERIRMIENASEVLITPLEKFRKEQIGAAKEAKKKYDKETEKYCGILEKHLNLSSKKKESQLQEADSQVDLVRQHFYEVSLEYVFKVQEVQERKMFEFVEPLLAFLQGLFTFYHHGYELAKDFGDFKTQLTISIQNTRNRFEGTRSEVESLMKKMKENPLEHKTISPYTMEGYLYVQEKRHFGTSWVKHYCTYQRDSKQITMVPFDQKSGGKGGEDESVILKSCTRRKTDSIEKRFCFDVEAVDRPGVITMQALSEEDRRLWMEAMDGREPVYNSNKDSQSEGTAQLDSIGFSIIRKCIHAVETRGINEQGLYRIVGVNSRVQKLLSVLMDPKTASETETDICAEWEIKTITSALKTYLRMLPGPLMMYQFQRSFIKAAKLENQESRVSEIHSLVHRLPEKNRQMLQLLMNHLANVANNHKQNLMTVANLGVVFGPTLLRPQEETVAAIMDIKFQNIVIEILIENHEKIFNTVPDMPLTNAQLHLSRKKSSDSKPPSCSERPLTLFHTVQSTEKQEQRNSIINSSLESVSSNPNSILNSSSSLQPNMNSSDPDLAVVKPTRPNSLPPNPSPTSPLSPSWPMFSAPSSPMPTSSTSSDSSPVSTPFRKAKALYACKAEHDSELSFTAGTVFDNVHPSQEPGWLEGTLNGKTGLIPENYVEFL	binds	no binding	no binding			
GRAF1b-GFP (protein, UniProt Q9UNA1-2 1-759) MGLPALEFSDCCLDSPHFRETLKSHEAELDKTNKFIKELIKDGKSLISALKNLSSAKRKFADSLNEFKFQCIGDAETDDEMCIARSLQEFATVLRNLEDERIRMIENASEVLITPLEKFRKEQIGAAKEAKKKYDKETEKYCGILEKHLNLSSKKKESQLQEADSQVDLVRQHFYEVSLEYVFKVQEVQERKMFEFVEPLLAFLQGLFTFYHHGYELAKDFGDFKTQLTISIQNTRNRFEGTRSEVESLMKKMKENPLEHKTISPYTMEGYLYVQEKRHFGTSWVKHYCTYQRDSKQITMVPFDQKSGGKGGEDESVILKSCTRRKTDSIEKRFCFDVEAVDRPGVITMQALSEEDRRLWMEAMDGREPVYNSNKDSQSEGTAQLDSIGFSIIRKCIHAVETRGINEQGLYRIVGVNSRVQKLLSVLMDPKTASETETDICAEWEIKTITSALKTYLRMLPGPLMMYQFQRSFIKAAKLENQESRVSEIHSLVHRLPEKNRQMLQLLMNHLANVANNHKQNLMTVANLGVVFGPTLLRPQEETVAAIMDIKFQNIVIEILIENHEKIFNTVPDMPLTNAQLHLSRKKSSDSKPPSCSERPLTLFHTVQSTEKQEQRNSIINSSLESVSSNPNSILNSSSSLQPNMNSSDPDLAVVKPTRPNSLPPNPSPTSPLSPSWPMFSAPSSPMPTSSTSSDSSPVSTPFRKAKALYACKAEHDSELSFTAGTVFDNVHPSQEPGWLEGTLNGKTGLIPENYVEFL				no binding	binds	no binding

Reference: PMC7199855, “GRAF2, WDR44, and MICAL1 mediate Rab8/10/11–dependent export of E-cadherin, MMP14, and CFTR ΔF508” (The Journal of Cell Biology, 2020)
